Data on three molecules can be found in publication PMC5400244.

The chains behind the UniProt entries cited, without tags or fusion partners.
UniProt O75475: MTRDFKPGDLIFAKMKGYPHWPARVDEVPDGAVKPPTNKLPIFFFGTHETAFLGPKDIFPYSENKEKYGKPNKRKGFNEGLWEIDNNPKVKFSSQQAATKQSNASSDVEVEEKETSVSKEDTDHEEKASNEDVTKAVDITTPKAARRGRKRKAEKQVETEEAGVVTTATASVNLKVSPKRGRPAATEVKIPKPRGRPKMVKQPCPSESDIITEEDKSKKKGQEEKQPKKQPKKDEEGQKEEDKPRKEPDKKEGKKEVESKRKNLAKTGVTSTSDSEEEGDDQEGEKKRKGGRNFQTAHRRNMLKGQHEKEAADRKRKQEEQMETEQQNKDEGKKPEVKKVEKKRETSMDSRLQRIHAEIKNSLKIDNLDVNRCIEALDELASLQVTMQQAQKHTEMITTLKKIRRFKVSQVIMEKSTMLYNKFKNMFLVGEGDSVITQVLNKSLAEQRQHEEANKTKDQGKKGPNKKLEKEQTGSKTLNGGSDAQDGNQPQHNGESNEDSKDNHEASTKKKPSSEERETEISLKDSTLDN
UniProt Q07955: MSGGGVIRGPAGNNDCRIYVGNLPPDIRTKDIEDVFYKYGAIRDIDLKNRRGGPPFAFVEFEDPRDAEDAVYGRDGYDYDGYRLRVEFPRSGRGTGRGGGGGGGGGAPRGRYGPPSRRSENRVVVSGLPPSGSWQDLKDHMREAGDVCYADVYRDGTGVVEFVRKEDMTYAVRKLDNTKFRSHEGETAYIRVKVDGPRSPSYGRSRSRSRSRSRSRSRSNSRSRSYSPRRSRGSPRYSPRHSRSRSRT

What all share (assay): co-IP; endogenous proteins in FD cell lysates; 5 ug antibody covalently cross-linked to Protein A/G magnetic beads (Pierce Crosslink Magnetic IP/Co-IP kit), room temperature 2 hours, low-pH elution, Western blotting; nonimmune IgG as negative control
The target of test [1] is PC4 and SFRS1-interacting protein (human (endogenous in EBV-transformed lymphoblast cells of an FD patient)) (UniProt O75475).
Test [2] has as its target T1, SRp20 (human (endogenous in EBV-transformed lymphoblast cells of an FD patient)) (UniProt P84103).
T1 sequence: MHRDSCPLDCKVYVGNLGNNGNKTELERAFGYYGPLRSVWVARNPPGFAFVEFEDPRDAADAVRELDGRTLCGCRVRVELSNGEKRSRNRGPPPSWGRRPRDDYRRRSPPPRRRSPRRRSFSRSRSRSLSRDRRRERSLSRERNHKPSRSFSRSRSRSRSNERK

The target in test [3] is SF2/ASF (human (endogenous in EBV-transformed lymphoblast cells of an FD patient)), Q07955. The settings on record: remark: other sources report otherwise.
For test [4], the target named is SF2/ASF (human (endogenous in EBV-transformed lymphoblast cells of an FD patient)) (UniProt Q07955).

Results are given in words; binding and its absence hold for the method and conditions named. Binding seen in cells or lysates may run through a third protein. Some binding calls cover weakened binding; strength is not graded here.

B1: non-POU domain-containing octamer-binding protein (protein, UniProt Q15233 1-471)
chain: MQSNKTFNLEKQNHTPRKHHQHHHQQQHHQQQQQQPPPPPIPANGQQASSQNEGLTIDLKNFRKPGEKTFTQRSRLFVGNLPPDITEEEMRKLFEKYGKAGEVFIHKDKGFGFIRLETRTLAEIAKVELDNMPLRGKQLRVRFACHSASLTVRNLPQYVSNELLEEAFSVFGQVERAVVIVDDRGRPSGKGIVEFSGKPAARKALDRCSEGSFLLTTFPRPVTVEPMDQLDDEEGLPEKLVIKNQQFHKEREQPPRFAQPGSFEYEYAMRWKALIEMEKQQQDQVDRNIKEAREKLEMEMEAARHEHQVMLMRQDLMRRQEELRRMEELHNQEVQKRKQLELRQEEERRRREEEMRRQQEEMMRRQQEGFKGTFPDAREQEIRMGQMAMGGAMGINNRGAMPPAPVPAGTPAPPGPATMMPDGTLGLTPPTTERFGQAATMEGIGAIGGTPPAFNRAAPGAEFAPNKRRRY
B1: the binding result in test [1] and in test [2] was “binds” each time.

B2: non-POU domain-containing octamer-binding protein, Q15233 1-471 (protein)
chain: B1 chain
On to B2, for which the binding entry in test [3] is “binds”.

B3: SRp20 (protein, UniProt P84103 1-164)
chain: T1 sequence
B3: the binding entry in test [4] and in test [1] was “binds” throughout.
